# Primary screen of a compound library

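Cell assay of Leishmania donovani living inside macrophages; the read-out is not stated. Concentration: 30 µM. The record gives no direction; compounds that gave an IC50 in retests scored well above the rest, so higher reads as stronger inhibition. Size under these conditions: about 69,000 compounds, about 1,000 of them at 50% or above in at least one test.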

Values are the deposited “Percent Effect”, in %.
How 0% and 100% were set is not recorded. Most values in the screen are low, and negative values occur.
This is an unselected part of the compounds tested.

CC(=O)NCC1CCN(c2ccnc3ccc(Br)cc23)CC1 read -5.849%.
O=C(Cn1nc2c(cc1=O)CCCC2)NC(C(=O)O)c1ccccc1 (centres undefined) read 1.421%.
c1cnc(N2CCc3onc(CN4CCOCC4)c3C2)cn1 read 11.47%.
O=C(O)C(F)(F)F.[H][C@@]12CN(Cc3ccoc3)C[C@]1([H])C(=O)N(Cc1ccc(OC)cc1)C2 read 10.75%.
Cc1ccc(N(C)CC(O)COCc2ccccc2F)c(C)c1 (centres undefined) read 10.01%.
O=C(C1CC=CC1)N1CCC2(CCN(Cc3cccc(F)c3)CC2)C1 read 9.208%.
O=C(Nc1cccnn1)NC(CCCO)c1ccccc1 (centres undefined) read 16.19%.
CN1CCOC(C)(C(=O)Nc2nccs2)C1 (centres undefined) read -4.847%.
CCOCCN(CCOCC)c1nc(C)nc2sccc12 read 93.26%.
CC(C)c1nnc2n1CCN(C(=O)c1ccc(Cn3cccc3)cc1)C2 read 22.79%.
O=S(=O)(NCc1cc2n(n1)CCNC2)c1ccc(OC(F)(F)F)cc1 read 38.39%.
CCNc1ncc(C(=O)NCCc2csc(CSC)n2)cn1 read -54.15%.
CSCC(C)(O)CNc1ncccc1I (centres undefined) read -23.35%.
O=c1n(CCSCc2ccccc2F)nc2ccccn12 read 3.559%.
Cn1ncc(-c2cc(-c3cccc(O)c3)nc(N)c2C#N)c1C1CC1 read 21.58%.
Cc1nc(N)cc(C2CN(C(=O)c3ccn(C)n3)CCO2)n1 (centres undefined) read 0.233%.
Cc1cnc(CN2CCCC2c2cnn(C)c2)cn1 (centres undefined) read 21.27%.
CCc1ncc2c(n1)CN(Cc1nc(-c3ccsc3)oc1C)CC2 read 13.66%.
CCCNC(=O)CN(C)C1CCN(c2ccc(Cl)cc2)CC1 read 12.64%.
CCc1cc(CN(C)Cc2nc(-c3ccc(OC)cc3F)oc2C)on1 read -5.017%.
COc1ccc([C@@H]2CN(C(=O)Cc3cccs3)C[C@H]2NC(C)=O)cc1 read 10.6%.
Cn1nnnc1SCC1COc2ccccc2O1 (centres undefined) read 8.02%.
O=C(O)C(F)(F)F.O=C(O)C(F)(F)F.[H][C@@]12OCCN(C3CCC3)[C@@]1([H])CC[C@@H]2Oc1cccnc1 read 20.06%.
COc1c[nH]c(C(=O)Nc2nc(C(C)(C)C)cs2)cc1=O read -5.042%.
COc1ccc(CN2CCc3nnc(COCCN(C)C)n3CC2)cc1.O=C(O)C(F)(F)F.O=C(O)C(F)(F)F read 15.99%.
O=C(O)C(F)(F)F.[H][C@@]12CCN(CCc3ccccc3)C[C@@]1([H])O[C@H](C(=O)NC1CCC1)C2 read -19.62%.
CC1CCN(c2nc(O)cc(C3CC(=O)N(C4CCCCC4)C3)n2)CC1 (centres undefined) read 9.4%.
O=C1OCCN1CCNc1ncc2c(n1)CCN2c1ccccc1 read -13.09%.

Some entries from above, unchanged:

* c1cnc(N2CCc3onc(CN4CCOCC4)c3C2)cn1 | 11.47%
* Cn1ncc(-c2cc(-c3cccc(O)c3)nc(N)c2C#N)c1C1CC1 | 21.58%

The values are deposited in ChEMBL (CHEMBL3988442, “University of Dundee, Small-Polar-MMV Screening Library” (2021)).